# At least one structure is not confirmed: it was looked up by name or label, or the drawing left a doubt.
# Assays:
# S1PR4-EGFP = assay: S1PR4 internalization and recycling in cell lines overexpressing S1PR4-EGFP (fluorescence microscopy); type: cell-based; settings: S1P 100 nM, FTY720 100 nM, SLB736 1 μM, cycloheximide
# Method: Cell lines overexpressing S1PR4-EGFP were used to identify whether or not SLB736 and FTY720 actually internalize S1PR4 into cells and thereby act as functional antagonists.
# Specifically, the cell lines overexpressing S1PR4-EGFP were incubated in a cover glass allowing for microscopic observation and were then treated with a vehicle (dimethyl sulfoxide […]), S1P (100 nM; agonist, positive control group), FTY720 (100 nM) and SLB736 (1 μM). 30 minutes and 2 hours after treatment with each material, the cell lines were fixed with a fixing solution and observed with a fluorescence microscope. At this time, the cells were cultured after treatment with a protein synthesis inhibitor (cycloheximide) in order to inhibit the synthesis of new receptors, were first observed with a fluorescence microscope 30 minutes after each material treatment, and were then washed. Then, the cells were further cultured for 1 hour 30 minutes and were secondarily observed, and cell images were obtained.
# S1PR4 [1] = target: T1, S1PR4 (Mus musculus, UniProt Q9Z0L1); assay: S1PR4 protein expression in liver tissue of MCDD-fed mice (Western blotting); type: in vivo; settings: C57BL/6N mice, 1 mg/kg with MCDD for 6 weeks, vs MCDD alone
# T1 construct: endogenous in cells; host or cells: Raw cells (mouse macrophage line)
# T1 sequence (Q9Z0L1 1-386): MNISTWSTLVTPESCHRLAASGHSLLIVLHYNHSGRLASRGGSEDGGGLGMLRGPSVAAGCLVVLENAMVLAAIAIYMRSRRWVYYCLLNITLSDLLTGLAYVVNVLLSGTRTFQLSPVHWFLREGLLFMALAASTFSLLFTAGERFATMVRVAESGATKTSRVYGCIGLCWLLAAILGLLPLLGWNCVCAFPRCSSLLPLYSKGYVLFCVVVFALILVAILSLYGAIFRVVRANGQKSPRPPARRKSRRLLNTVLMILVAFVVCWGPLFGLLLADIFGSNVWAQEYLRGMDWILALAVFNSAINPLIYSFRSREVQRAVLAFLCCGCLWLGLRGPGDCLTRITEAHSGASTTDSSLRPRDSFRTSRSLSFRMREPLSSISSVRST
# Source text: In order to determine whether or not SLB736, the compound of the present invention, acts as a functional antagonist of S1PR4, changes in S1PR4 protein expression were observed after administration of candidate substances to nonalcoholic steatohepatitis (NASH) model mice and macrophages thereof.
# It is well known that the administration of a methionine choline-deficient diet (MCDD) to mice results in non-alcoholic steatohepatitis. The mice (C57BL/6N, Orient Bio, Inc., Korea) used in the experiments were divided into three groups, and MCDD alone, 1 mg/kg of MCDD and FTY720, and 1 mg/kg of MCDD and SLB736 were administered to each group for 6 weeks. Then, changes in the expression of S1PR4 protein in liver tissue of mice were measured through Western blotting.
# NLRP3 inflammasome = assay: IL-1β production of LPS-treated macrophages (NLRP3 inflammasome activity); type: cell-based, mouse; settings: Raw cells, 0.1 μM, then LPS
# Source text: It is well known that the treatment of macrophages with lipopolysaccharide (LPS) results in activation of inflammation-regulating complex (inflammasome), thereby increasing IL-1β production (Mariathasan et al., Nat. Rev. Immunol. 2007; 17186029). In order to determine the inhibitory effect of the activity of inflammation-regulating complex (NLRP3 inflammasome), which is a representative inflammation-regulating protein, the IL-1(3 production of candidate substances upon the treatment of macrophages with LPS was measured and evaluated.
# The macrophages were treated with myriocin in different concentrations as a control group and were then treated with the same concentration of LPS for 24 hours. […] Based on this, experiments were conducted to determine the effect of sphingolipid candidates on the inhibition of IL-1β.
# S1PR4 [2] = target: T1, S1PR4; assay: S1PR4 expression in LPS-treated Raw cells; type: cell-based; settings: substance then LPS, vs LPS only
# Method: In addition, Raw cells, which are mouse macrophage lines, were treated with a FTY720 or SLB736 substance, and were then treated with LPS, and S1PR4 expression was then measured.
smiles,measurement,setting,value
"CCCCCCCCc1ccc(CCC(N)(CO)CO)cc1 [FTY720, Fingolimod, reference compound]",S1PR4 internalization,S1PR4-EGFP; 30 minutes after treatment,internalized
same,S1PR4 recycling to the cell membrane,S1PR4-EGFP; 2 hours (washed after 30 minutes),not recycled
same,amount of S1PR4 protein in liver tissue,S1PR4 [1],decreased
same,inhibitory effect of IL-1β production,NLRP3 inflammasome,inhibitory effect of IL-1β production similar to 10 μM myriocin
same,expression level of S1PR4,S1PR4 [2],significantly reduce
